What all share (assay): co-IP
In assay [1] the target is myc-tagged RUFY (RUFY1/CG31064) (Drosophila).
Assay [2] deals with HA-tagged RUFY (RUFY1/CG31064) (Drosophila).
Assay [3] shares this target. This is another data set of the same source.

Protein sequences, listed by entry. Tags and fused reporters are not part of them. Lines headed by an entry give the natural chain unless they say otherwise; changes in a name come on top.
UniProt O18333: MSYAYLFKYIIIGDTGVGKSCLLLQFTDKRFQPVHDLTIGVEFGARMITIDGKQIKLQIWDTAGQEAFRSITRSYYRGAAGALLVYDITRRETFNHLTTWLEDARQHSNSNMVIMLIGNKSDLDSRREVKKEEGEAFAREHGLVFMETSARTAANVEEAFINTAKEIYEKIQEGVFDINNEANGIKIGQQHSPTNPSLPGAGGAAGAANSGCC

Results on four molecules are retold here after paper doi:10.1101/2025.05.28.656585.

Read-outs that look alike come from different tables or passages of the source. No constants are given. Whether binding was seen depends on the method and setting. Binding seen in cells or lysates may run through a third protein. A result given as binding can be weak or reduced; the word gives no strength. For some of these results: Sequences can lack the tags named with a protein.

On to “HA-tagged GTP-locked, constitutively active Rab2 Q65L (from UniProt O18333 1-213)”, for which the binding result in assay [1] is “binds weakly”.

For “myc-tagged Rab2 Q65L (from UniProt O18333 1-213)”, in assay [2], the binding entry is listed as “binds”.

B1: myc-tagged full length Sunday Driver (Syd/dJIP3/4) (protein, UniProt Q9GQF1 1-1227)
chain: MMDNDDALLNNGGPQSGAETVYGTEDNNMVMSEKNEQVVSIVQQLAGSIYQEFERMINRYDEDVVKNLMPLLVNVLECLDASYRINQEQDVEVELLREDNEQLVTQYEREKSARKQSEQKLLEAEDLAEQENKELATRLESVESIVRMLELKHKNSLEHASRLEEREADLKKEYNKLHERYTELFKNHVDYMERTKMLMGSTHSQMSTASERMDVSRARLNPVARSSGPVSYGFASLENSVMLDTETICSVGSQSDDSGPPSLQNELDNLSGTLERGAATDALQQQHHATSPQSPDSSPVVPNVPTNVGRSTTKKEQRSDNNLYQELSFQDNEESEENEIVTGSWVHPGEYASSANDNYFGMGKEVENLIMENNELLATKNALNIVKDDLIVKVDELTGEVEIVREELNAMQQSRTKLRQRISELEDELKKAKEQVKQQNTEQEENDVPLAQRKRFTRVEMAMVLMERNQYKERLMELQEAVRLTEILRASRTVDNLDRKSKQSIWKYFSNLFTPSNRPTERVADGLGGGPMFRHTGGGSPAHSHGSPSRGSGGGDNRLALTSGQPPVHPASAGLANALIMPKDYAEEGSSERISARRREQYRQLRAHVQKEDGRLHAYGWSLPINKASQEANPNRHSGGVPVPVYCNPLAEASPHMKVFCAAGVNLHGGFTKNGQSLIPANSPYAPKSTLKIAEITSPTADQSMEALDRQMARVSLETLEPETQLSSFVWICTSTHAASTVSVVDANQSATVLDAFPICASHLLCIASVQGAMESDYALLEQSEVVKAGEMLQRPGEGTELLGKVEFVRVKPKSDDEQNSNEKQQQEEEEAKEATEKSNEQLPAVSAEEPLGNVEAIKIRQPLPGAPQRLSTDGNQTNNNNNSSSSSNLLFATKSLNPILETKDRDEPAMSSVGPTMWLGAQDGWLYVHSSVGRWHECLHRVLLPDAVLAIVHVEARVVVALANAQLAVFRRQTDGQWDLNSYHLVTLGDRNHSIRCLCVAGERIWAAHRNKIFIVDPVSLNIVHSLDAHPRKESQVRQMAATGAGVWVSIRLDSTLRLYNTHTFEHKQDVDIEPYVSKMLGTGKLGFSFVRITALMVSCNRLWIGTSNGVIISVPLAEVQPKSSSDPHGQMPLCCMANAQLSFHGHRDAVKFFVSVPMLQQPNLNGGLTFTNKRPDMLVMCGGEGYIDFRINDNDMENSIQLEPNQTIENRGDKSYLIVWHVSQR
For B1, in assay [3], the binding result is on record as “binds”.

B2: V5-tagged Arl8 (protein, UniProt Q9VHV5 1-186)
chain: MLALINRILEWFKSIFWKEEMELTLVGLQFSGKTTFVNVIASGQFAEDMIPTVGFNMRKITRGNVTIKVWDIGGQPRFRSMWERYCRGVNAIVYMVDAADLDKLEASRNELHSLLDKPQLAGIPVLVLGNKRDLPGALDETGLIERMNLSSIQDREICCYSISCKEKDNIDITLQWLIQHSKSQSR
Consider B2, for which the binding entry in assay [3] was “binds”.
